The results in this text go back to paper PMC9811443.

Protein sequences, listed by entry. Tags and fused reporters are not part of them.
UniProt P60953: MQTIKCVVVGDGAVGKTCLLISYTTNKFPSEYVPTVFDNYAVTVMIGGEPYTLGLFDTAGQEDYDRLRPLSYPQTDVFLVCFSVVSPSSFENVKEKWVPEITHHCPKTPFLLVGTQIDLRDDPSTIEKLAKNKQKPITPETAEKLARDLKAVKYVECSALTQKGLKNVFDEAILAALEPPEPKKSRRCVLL

No constants are given. Whether binding was seen depends on the method and setting. In cells and extracts the contact can be indirect. Some binding calls cover weakened binding; strength is not graded here.

In the assay the target is T1, podocalyxin‐like protein 1 (PODXL) (human (endogenous in hiPSCs)) (UniProt O00592).
T1 sequence: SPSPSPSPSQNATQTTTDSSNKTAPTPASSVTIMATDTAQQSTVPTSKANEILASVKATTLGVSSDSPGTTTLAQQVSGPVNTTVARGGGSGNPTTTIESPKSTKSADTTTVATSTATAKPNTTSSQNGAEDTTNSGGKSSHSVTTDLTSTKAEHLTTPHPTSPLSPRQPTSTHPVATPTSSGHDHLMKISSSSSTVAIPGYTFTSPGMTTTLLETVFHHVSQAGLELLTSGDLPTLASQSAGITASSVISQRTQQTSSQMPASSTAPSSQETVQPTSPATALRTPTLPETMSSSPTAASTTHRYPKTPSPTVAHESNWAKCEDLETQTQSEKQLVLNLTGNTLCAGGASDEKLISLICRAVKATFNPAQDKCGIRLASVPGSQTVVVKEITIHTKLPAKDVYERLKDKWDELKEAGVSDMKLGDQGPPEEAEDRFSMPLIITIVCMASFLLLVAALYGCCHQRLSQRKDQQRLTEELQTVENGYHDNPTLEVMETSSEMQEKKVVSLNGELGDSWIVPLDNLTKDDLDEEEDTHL
Nature of the assay: co-IP; anti-PODXL antibody on Dynabeads Protein G, hiPSC lysate (TNI lysis buffer: 0.5% Igepal CA-630, 50 mM Tris pH 7.5, 250 mM NaCl, 1 mM EDTA), overnight at 4 °C; blots for endogenous RAC1 and CDC42; with or without doxycycline (2 x 10^-6 M) to induce PODXL knockout; IgG control antibody.

For the substance CDC42 (from UniProt P60953 1-191), the binding entry is reported as “binds”.
